Reference: paper PMC8540097, “Novel Oleanolic Acid-Tryptamine and -Fluorotryptamine Amides: From Adaptogens to Agents Targeting In Vitro Cell Apoptosis” (Plants, 2021)

Tests used:
[1] = system: G-361 (malignant melanoma); assay: Cytotoxicity screening test, G-361 cells (resazurin, 72 h); type: cell-based, human; settings: G-361 versus BJ
Method: (§1) The screening human cancer cell lines used in this investigation were CEM (T-lymphoblastic leukemia), MCF7 (breast carcinoma), HeLa (cervical carcinoma) and G-361 (malignant melanoma) from the European Collection of Authenticated Cell Cultures (Salisbury, UK). Human foreskin fibroblasts (BJ) were used as reference cells, and they were a kind gift from Prof. Bartek from Danish Cancer Society Center (Copenhagen, Denmark). Cells were cultured in DMEM (Dulbecco’s Modified Eagle Medium) or in RPMI 1640 medium (CEM). Media used were supplemented with 10% fetal or 20% (CEM) bovine serum, L-glutamine (2 mM), and 1% penicillin-streptomycin mixture (all from Sigma, MO, USA). The cell lines were maintained under standard cell culture conditions at 37 °C and 5% CO2 in a humid environment. Cells were subcultured twice or three times a week using the standard trypsinization procedure. A description of the experimental procedure used in the cytotoxicity screening tests was already published. The cell viability was measured after 72 h using resazurin (Sigma, St. Louis, MO, USA).

[2] = system: HeLa (cervical carcinoma); assay: Cytotoxicity screening test, HeLa cells (resazurin, 72 h); type: cell-based, human; settings: HeLa versus BJ
Method: as §1

SMILES | Therapeutic Index TI (G-361) [1] | Therapeutic Index TI (HeLa) [2]
CC(=O)O[C@H]1CC[C@]2(C)[C@H]3CC=C4[C@@H]5CC(C)(C)CC[C@]5(C(=O)NCCc5c[nH]c6ccccc56)CC[C@@]4(C)[C@]3(C)CC[C@H]2C1(C)C [Compound 3a, Tryptamine amide of (3β)-3-(acetyloxy)olean-12-en-28-oic acid] | 5 | 5
CC(=O)O[C@H]1CC[C@]2(C)[C@H]3CC=C4[C@@H]5CC(C)(C)CC[C@]5(C(=O)NCCc5c[nH]c6cc(F)ccc56)CC[C@@]4(C)[C@]3(C)CC[C@H]2C1(C)C [Compound 3b] | 3 | 7
CC(=O)O[C@H]1CC[C@]2(C)[C@H]3CC=C4[C@@H]5CC(C)(C)CC[C@]5(C(=O)NCCc5c[nH]c6ccc(F)cc56)CC[C@@]4(C)[C@]3(C)CC[C@H]2C1(C)C [Compound 3c] |  | 4
CC1(C)CCC2(C(=O)NCCc3c[nH]c4cc(F)ccc34)CCC3(C)C(=CCC4C5(C)CCC(O)C(C)(C)C5CCC43C)C2C1 (stereo not shown) [Compound 4b] |  | 2
CC1(C)CCC2(C(=O)NCCc3c[nH]c4ccc(F)cc34)CCC3(C)C(=CCC4C5(C)CCC(O)C(C)(C)C5CCC43C)C2C1 (stereo not shown) [Compound 4c] |  | 2.5
